According to patent US20250326817A1 (LA JOLLA INSTITUTE FOR IMMUNOLOGY, published 2025):
No constants are given. Whether binding was seen depends on the method and setting. Some results given as binding are weak or reduced against the parent protein; the word gives no strength.

By UniProt entry, the sequences of proteins in these tests, tags left out. Residues count along the entry.
UniProt Q7TSA3, residues 30-183: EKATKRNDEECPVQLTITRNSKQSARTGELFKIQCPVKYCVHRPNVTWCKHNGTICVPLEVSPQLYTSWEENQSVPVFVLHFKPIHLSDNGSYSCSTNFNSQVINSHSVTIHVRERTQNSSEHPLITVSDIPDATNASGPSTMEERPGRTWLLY

Legend:
[1] = molecular target: mouse BTLA, soluble protein (analyte of the Octet assay) (mouse) (UniProt Q7TSA3); assay: cell-protein flow cytometry (mHVEM-mCherry cells + mBTLA-His/anti-His green)
[2] = molecular target: mouse BTLA, soluble protein (analyte of the Octet assay) (mouse) (UniProt Q7TSA3); assay: protein staining flow cytometry (mHVEM-mCherry cells + mBTLA-His/anti-His green)
[3] = molecular target: mouse CD160 residues I30-H154 with C-terminal …, refolded from E. coli inclusion bodies (mouse) (UniProt O88875); assay: cell-protein flow cytometry (mHVEM-mCherry cells + mCD160-biotin/streptavidin-AF488)

binding [1]	binding [2]	binding [3]	Binder
binds	binds		mouse HVEM, wild type, full length, fused to mCherry, on HEK293 FreeStyle cells (receptor, also called mHVEM; WT mHVEM; not shown: mCherry fused at the C-terminus (pmCherry-N1 vector)) QPSCRQEEFLVGDECCPMCNPGYHVKQVCSEHTGTVCAPCPPQTYTAHANGLSKCLPCGVCDPDMGLLTWQECSSWKDTVCRCIPGYFCENQDGSHCSTCLQHTTCPPGQRVEKRGTHDQDTVCADCLTGTFSLGGTQEECLPWTNCSAFQQEVRRGTNSTDTTCSSQVVYYVVSILLPLVIVGAGIAGFLICTRRHLHTSSVAKELEPFQEQQENTIRFPVTEVGFAETEEETASN
binds			mouse HVEM A76D, full length, fused to mCherry, on cells (receptor, also called mHVEM A76D; not shown: mCherry fused at the C-terminus (pmCherry-N1 vector)) QPSCRQEEFLVGDECCPMCNPGYHVKQVCSEHTGTVCDPCPPQTYTAHANGLSKCLPCGVCDPDMGLLTWQECSSWKDTVCRCIPGYFCENQDGSHCSTCLQHTTCPPGQRVEKRGTHDQDTVCADCLTGTFSLGGTQEECLPWTNCSAFQQEVRRGTNSTDTTCSSQVVYYVVSILLPLVIVGAGIAGFLICTRRHLHTSSVAKELEPFQEQQENTIRFPVTEVGFAETEEETASN
		no binding	mouse HVEM R43D-M56A-K64D triple mutation, full length, fused to mCherry, on cells (receptor, also called mHVEM R43D-M56A-K64D; not shown: mCherry fused at the C-terminus (pmCherry-N1 vector)) QPSCDQEEFLVGDECCPACNPGYHVDQVCSEHTGTVCAPCPPQTYTAHANGLSKCLPCGVCDPDMGLLTWQECSSWKDTVCRCIPGYFCENQDGSHCSTCLQHTTCPPGQRVEKRGTHDQDTVCADCLTGTFSLGGTQEECLPWTNCSAFQQEVRRGTNSTDTTCSSQVVYYVVSILLPLVIVGAGIAGFLICTRRHLHTSSVAKELEPFQEQQENTIRFPVTEVGFAETEEETASN
binds	binds		mouse HVEM H86D-L90A double mutein, full length, fused to mCherry, on cells (receptor, also called mHVEM H86D-L90A; mHVEM^-LIGHT; not shown: mCherry fused at the C-terminus (pmCherry-N1 vector)) QPSCRQEEFLVGDECCPMCNPGYHVKQVCSEHTGTVCAPCPPQTYTADANGASKCLPCGVCDPDMGLLTWQECSSWKDTVCRCIPGYFCENQDGSHCSTCLQHTTCPPGQRVEKRGTHDQDTVCADCLTGTFSLGGTQEECLPWTNCSAFQQEVRRGTNSTDTTCSSQVVYYVVSILLPLVIVGAGIAGFLICTRRHLHTSSVAKELEPFQEQQENTIRFPVTEVGFAETEEETASN
